PMC10163288
The other results are listed elsewhere or left out.

B1: il2ra_site2_2erj_sap_24_mot_ems_p1-14H-GABBL-16H-GABBL-15H_0014_0001_0001_0001_000000124_0001_40_55_H_._098064ffb003ae9d220488cec4d80c2b_0001_af2_0001_000030001 … (protein)
chain: SSSSDEEEERIEELAEEAERLDDLHRVYELLNEMTRIASRANNQELVELVARLLEEIAKKFSSSS
B2: il2ra_site1_3nfp_sap_15_mot_HHH_b1_05868_af2_000000129_0001_1_19_H_._HHH_b1_04163_af2_0001_0000300017_0000001_0_0001_af2pred_0001_af2pred (protein)
chain: SSSSSWREKAMEAILRAAELANDEELREELEKLLEKLREEGDPRALREAVKLLKEAAKRLSSSSS
B3: il2ra_site1_1z92_normal_mot_HHH_b1_00368_000000203_0001_23_39_H_._HHH_b1_01554_af2_0001_0000300020_0000001_0_af2pred_0001_af2pred_1 (protein)
chain: SSSSSDEKDAKMIVRLAVRAARLSEEQEEQLRELAEELVKRGYDFEEIARILDELALKLLSSSSS
B4: il2ra_site2_3nfp_sap_21_mot_HHH_b1_01767_000000280_0001_1_18_H_._HHH_b1_02336_0001_0000100003_0000001_1_0001_af2pred_0001_af2pred_1_swapped (protein)
chain: SSSSSEEEEEVERLLEKAKKIEDPEEAAEAVRKAATIAVEINNEELFMAAIRLLERLERGSSSSS
B5: il2ra_site1_1z92_normal_mot_73a3237f21306322153cb43486d2ff88_0001_1_af2_000000006_0001_34_49_H_._66959ead3e6c57cb3ef8243f3eb758e0_0001_1_0001_0000400058_0000001 … (protein)
chain: SELEQELLDAVRSKDEEALRELIQLLLRDTKDPELARQLLRILVKRLGLPEEVLERLLKLLDELA
B6: il2ra_site1_3nfp_normal_mot_HHH_b2_00857_af2_000000076_0001_1_16_H_._HHH_b1_07967_0001_0000100005_0000001_0_1_af2pred_0001_af2pred (protein)
chain: SSSSDVEEELKELLEELEELAKRRDIRRFNEVAKEIAKLVKENDDEEAWRLLRRILREAAGSSSS
B7: il2ra_site2_2erj_sap_15_mot_HHH_b2_06646_af2_000000081_0001_19_36_H_._HHH_b2_00405_0001_0000200009_0000001_0_0001 (protein)
chain: SSSSDDEVNRRILELARQALRVDKEEVEEIIEEMKELAEENNDEDAKAAAETLERYLRRLSSSSS
B8: il2ra_site2_3nfp_normal_mot_HHH_b1_00660_af2_000000199_0001_40_57_H_._HHH_b1_02274_0001_0000200005_0000001_1 (protein)
chain: SSSSDEEAEEEVEKARELFEEGNLEEARKVLAKAADLVYEAGDHELFAILNELLFKIIQRSSSSS
B9: il2ra_site1_2b5i_normal_mot_HHH_b1_06833_000000207_0001_1_19_H_._9b4a7537886aea0851cc58e6c1afe4dd_0001_1_0001_0000200018_0000001_0_af2pred_dldesign_0_af2pred (protein)
chain: DAEKVTALLREIGVPEEEIERVLELYEEYQAHPEDSEVLRRLVDLLYRLAKSPEVLKELNKLLSK
B10: il2ra_site2_2erj_sap_27_mot_HHH_b1_01129_af2_000000281_0001_18_33_H_._HHH_b1_00785_af2_0001_0000500007_0000001_0_0001 (protein)
chain: SSSDEEEEELEKLLEEVERLIKEGNPEEAAEVLNRATRLAMELHDAEVYERIIELYHLLDNSSSS

Target: il2ra, P01589
Assay: yeast display titration

Apparent Kd, inactive:
B1 no binding seen, B2 no binding seen, B3 no binding seen, B4 no binding seen, B5 no binding seen, B6 no binding seen, B7 no binding seen, B8 no binding seen, B9 no binding seen, B10 no binding seen
